Assay results taken from publication PMC4618690.
Results are given in words; binding and its absence hold for the method and conditions named. For part of these data: Binding calls can cover weak binding; strength is not graded here. Where a sequence is shown, tags or fusion partners need not be part of it.

How the values were obtained:
[1] = target: LexA DBD-ETS-4(S73A) (C. elegans); assay: two-hybrid; LexA DBD-ETS-4 fusions (pBTM116) with GAL4 AD-CEBP-1 (pACTII) in S. cerevisiae NMY51; beta-galactosidase activity in cellular extracts (Miller units), background with the control vector pACTII subtracted; ten independent experiments
[2] = target: LexA DBD-ETS-4 (C. elegans); assay: as above
[3] = target: LexA DBD-ETS-4(S73E) (C. elegans); assay: as above
[4] = target: LexA DBD-ETS-4(S73A) (C. elegans); assay: two-hybrid; LexA DBD-ETS-4 fusions (pBTM116) with GAL4 AD-CEBP-1 (pACTII) in S. cerevisiae L40u; growth on SC-Leu-Trp-His plates with 80 mM 5-aminotriazole, 30 C, 4 days
[5] = target: LexA DBD-ETS-4 (C. elegans); assay: as above
[6] = target: LexA DBD-ETS-4(S73E) (C. elegans); assay: as above

binding [1]: no binding
binding [2]: binds
binding [3]: binds
binding [4]: no binding
binding [5]: binds
binding [6]: binds
B1: GAL4 AD-CEBP-1 (protein, UniProt Q18909 1-319)
chain: MYSKLNYSHQKGDQALKHPHLVRLQQSEVRGFTDMPNNGASTSSAGSFARQDSLTIAASLQQRDRERHPVDFMETELDLGDYLQVLHDLDVPTDNVDFDDAELQKCNILYDGEHPYEQPELNGYERHVAYGTGYRVPGDYDQDGYKMNCEVKAETPDFGATKTRRAVKRPVPYDDYQKEYSEESSDMTDNDGSVDDSYFEPKSKKTKSAGLENFKPQTRARKYKLKADEEKAEPTYKLKRARNNDAVRKSRKKAKELQDKKEAEHDKMKRRIAELEGLLQSERDARRRDQDTLEQLLRNKGPMKEQRMPQRHILENFNK
